Results reported in PubChem BioAssay AID2685 (National Center for Advancing Translational Sciences (NCATS), 2010).
The other results are listed elsewhere or left out. These are further read-outs of the screen, such as a control signal, another cell line or another target. No call is given for them. Compounds called inactive in the main read-out are mostly missing here. Potencies come from curve fits of mixed quality, noted in brackets.

Experiment: qHTS Assay for Lipid Storage Modulators in Drosophila S3 Cells;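 as to cell number change: cells counted by Cell Tracker Red CMTPX staining in the red channel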
Details: BODIPY lipid droplet fluorescence, 18-24 h; for cell number change: measured here: cell count max response, cells fed with added oleic acid
Method in brief: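 Drosophila S3 cells got compounds at several concentrations plus oleic acid (400 uM solution). Laser-scanning cytometry with 488 nm excitation read lipid droplets at 500-530 nm and cells at 575-640 nm. Percent activity was relative to 20 uM Triacsin C.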

[1] = measured here: cell number channel AC50, cells fed with added oleic acid
[2] = measured here: lipid fluorescence (Fed channel) AC50, cells fed with added oleic acid

Row | Structure (SMILES) | cell number change | AC50 [1] | AC50 [2]
1 | CSc1nc2ncc3c(n2n1)CC(C)(C)CC3=O | -40.8% | 32.6 µM [falling, single point] | –
2 | CC(Nc1ncnc2ccccc12)c1ccccc1 (stereo not drawn) | -36.8% | 3.26 µM [falling, full curve, poor fit] | 1.64 µM [falling, partial curve]
3 | COCCN=c1scc(C)n1/N=C/C1CC2C=CC1C2 (stereo not drawn) | 70.5% | 0.206 µM [rising, full curve, poor fit] | 0.082 µM [rising, full curve, poor fit]
4 | Cc1ccc(S(=O)(=O)NC(CC(=O)N2CCOCC2)c2ccco2)cc1 (stereo not drawn) | -66.4% | 2.91 µM [falling, full curve] | 2.59 µM [falling, full curve]
5 | COc1cccc2cc(C(=O)CS(=O)(=O)c3ccc(C(C)(C)C)cc3)c(=O)oc12 | -17.7% | – | 11.6 µM [rising, single point]
6 | COC(=O)CSc1nnc(SCc2ccccc2)s1 | -0.523% | – | –
7 | CCOP(=O)(OCC)C(NC(=O)Nc1ccccc1)C(N)=O (stereo not drawn) | -36.1% | – | –
8 | Cc1ccc(N2CCCn3c2nc2c3c(=O)n(CCN3CCOCC3)c(=O)n2C)cc1 | -35.1% | 0.731 µM [falling, full curve] | 9.2 µM [falling, partial curve]
9 | Cc1cc(C)nc(NC(=O)CSc2nc3cc(Cl)ccc3s2)n1 | – | – | 0.58 µM [rising, single point]
10 | CCOc1ccccc1NC(=O)c1ccccc1NS(C)(=O)=O | – | – | 3.66 µM [rising, partial curve]
11 | CCOc1ccc(C(=O)Nc2ccccc2N2CCCC2)cc1 | 7% | – | 0.13 µM [falling, full curve, poor fit]
12 | Cn1cnc([N+](=O)[O-])c1SCC(O)CCl (stereo not drawn) | -25.7% | 0.103 µM [falling, full curve, poor fit] | –
13 | CCC(=O)Nc1ccc2oc(-c3cccc(C)c3)nc2c1 | – | 3.26 µM [rising, partial curve] | 3.66 µM [rising, partial curve]
14 | COC(=O)c1ccc(CNC(=O)C(C)N=C2NS(=O)(=O)c3ccccc32)cc1 (stereo not drawn) | -7.48% | – | –
15 | CCCCCc1cc(=O)oc2c(C(CCN3CCCCC3)c3cc(OC)c(OC)c(OC)c3)c(OC)cc(OC)c12 (stereo not drawn) | -51.4% | 18.4 µM [falling, single point] | 29.1 µM [falling, single point]
16 | CCc1nn(CCCC(=O)Nc2ccc(C)cc2C)c(=O)c2cc3occc3n12 | -15.8% | 0.259 µM [rising, full curve, poor fit] | –
17 | CC(C)Cn1cnc2c(=O)oc3ccccc3c21 | 125% | 14.6 µM [rising, partial curve] | 2.31 µM [rising, partial curve]
18 | O=C(NCC(c1cccnc1)N1CCN(c2ccc(F)cc2)CC1)c1ccc2c(c1)OCO2 (stereo not drawn) | 99.2% | 0.164 µM [rising, full curve] | 4.11 µM [rising, partial curve]
19 | CSc1ccc(CN(C)C(=O)c2cc(=O)c3ccccc3o2)cc1 | 10.8% | – | –
20 | COc1ccccc1/C=C/C=N/N1CCN(Cc2ccccc2)CC1 | -16.7% | 0.0164 µM [falling, full curve, poor fit] | 29.1 µM [falling, single point]

Entries from the list above that contain a halogen (3):
Row | Structure (SMILES) | cell number change | AC50 [1] | AC50 [2]
9 | Cc1cc(C)nc(NC(=O)CSc2nc3cc(Cl)ccc3s2)n1 | – | – | 0.58 µM [rising, single point]
12 | Cn1cnc([N+](=O)[O-])c1SCC(O)CCl (stereo not drawn) | -25.7% | 0.103 µM [falling, full curve, poor fit] | –
18 | O=C(NCC(c1cccnc1)N1CCN(c2ccc(F)cc2)CC1)c1ccc2c(c1)OCO2 (stereo not drawn) | 99.2% | 0.164 µM [rising, full curve] | 4.11 µM [rising, partial curve]

The list goes on.

Row | Structure (SMILES) | cell number change | AC50 [1] | AC50 [2]
21 | NS(=O)(=O)c1ccc(CCNC(=O)CNS(=O)(=O)c2cccc(Br)c2)cc1 | 193% | – | –
22 | CCc1ccccc1OCc1nnc(N)s1 | 9.19% | – | 4.11 µM [rising, full curve, poor fit]
23 | CC(C)CCC(C(=O)O)C(C)CC(=O)NC1CCCCC1 (stereo not drawn) | -5.03% | – | 0.517 µM [falling, partial curve, poor fit]
24 | COc1ccc(NC(=O)CSc2nc(N)c3cc4c(nc3n2)CC(C)(C)OC4)cc1 | – | 2.31 µM [falling, partial curve, poor fit] | –
25 | Cc1ccc(NC2CCCN(C(=O)C3CCCC3)C2)cc1C (stereo not drawn) | -4.09% | – | 0.291 µM [rising, full curve]
26 | CSc1nc2ccc(NS(=O)(=O)c3ccccc3F)cc2s1 | 9.97% | – | 0.13 µM [falling, full curve, poor fit]
27 | c1ccc(-c2ccccn2)nc1 | -16.5% | – | 4.11 µM [falling, full curve, poor fit]
28 | CC1(C)CC(NC(=O)COc2ccc3ccccc3c2)CC(C)(C)N1 | 33.5% | 6.51 µM [rising, full curve, poor fit] | –
29 | COc1ccc(NS(=O)(=O)c2cccs2)cc1S(=O)(=O)N1CCOCC1 | 16.7% | – | 6.51 µM [rising, single point]
30 | CSCc1cc(N2CCOCC2)nc(SCc2ccc(Cl)cc2Cl)n1 | – | – | 0.58 µM [rising, single point]
31 | O=C(CN1CCN(c2cccc(Cl)c2)CC1)NCc1ccccc1 | -35.4% | 29.1 µM [falling, single point] | 29.1 µM [falling, single point]
32 | CCOC(=O)c1c(OCC)[nH]c2c1cc(O)c1ccccc12 | -48.7% | 14.6 µM [falling, partial curve] | 14.6 µM [falling, partial curve]
33 | Cc1ccn2c(C(=O)CSc3ccc(Cl)cc3)c(C)nc2c1 | 67.6% | 5.17 µM [rising, full curve] | 13 µM [rising, partial curve]
34 | COc1ccccc1N1C(=NC(=O)COc2ccccc2)SC2CS(=O)(=O)CC21 (stereo not drawn) | -10.4% | – | –
35 | CC(C)C(=O)N(c1ccc2oc(=O)sc2c1)S(=O)(=O)c1cccs1 | 1.48% | – | 29.1 µM [falling, single point]
36 | COc1ccc(C(=O)NCC(=O)OCC(=O)NCc2cccs2)cc1 | -41% | 18.4 µM [falling, single point] | –
37 | N#CCSc1nc(-c2ccccc2)nc2ccc(F)cc12 | 2.36% | – | 29.1 µM [falling, single point]
38 | O=C(NCCNc1ccc(Cl)cc1[N+](=O)[O-])c1cccnc1 | -31.6% | – | –
39 | O=[N+]([O-])c1cccc(NC(=S)NCCc2ccccc2)c1 | -27% | – | 20.6 µM [falling, single point]
40 | CCNc1nc(NC(C)C)nc(OCC)n1 | 5.7% | 0.517 µM [rising, single point] | 4.61 µM [falling, single point]

Row | Structure (SMILES) | cell number change | AC50 [1] | AC50 [2]
41 | COC(=O)c1ccc(C)c(NC(=O)C2CC(=O)N(C3CCCC(C)C3C)C2)c1 (stereo not drawn) | -13% | – | 29.1 µM [falling, single point]
42 | CSc1ccccc1OCc1cc(C(=O)NCCn2ccnc2C)no1 | 28.2% | 0.651 µM [rising, full curve, poor fit] | 29.1 µM [rising, single point]
43 | Cc1ccc(-c2nc3ccccc3s2)cc1NC(=S)NC(=O)c1cccc2ccccc12 | 6.3% | 6.51 µM [rising, single point] | 29.1 µM [rising, single point]
44 | Cc1cccc(NC(=O)CCN2C(=O)c3ccccc3C2=O)c1 | -27.8% | – | –
45 | Cc1noc(C)c1C(=O)NCC1COc2ccccc2O1 (stereo not drawn) | -5.24% | 0.0461 µM [falling, full curve, poor fit] | –
46 | CC(=O)Nc1nc2cc(C(N)=O)ccc2s1 | -3.5% | – | –
47 | COc1cc(NC(=O)CSc2nnc(-c3ccncc3)n2C2CCCCC2)ccc1NC(=O)c1ccco1 | – | 0.651 µM [rising, single point] | 0.00461 µM [rising, full curve, poor fit]
48 | Cn1nc(C(=O)NNC(=O)c2ccc(Cl)cc2)ccc1=O | -29.7% | – | –
49 | O=C(Nc1ccn(Cc2ccccc2F)n1)c1ccc(COc2ccc(Cl)cc2Cl)o1 | -21.1% | – | 29.1 µM [falling, single point]
50 | Cc1ccc(O)c(C(=O)c2cnn(-c3ccccc3)c2)c1 | 27.6% | – | –
51 | COc1ccc(CN(C)C(=O)c2ccc(OCC(=O)N3CCOCC3)c(OC)c2)cc1 | -3.48% | – | 2.59 µM [rising, partial curve, poor fit]
52 | Cc1cc(N2CCCCC2)nc2ccc(NC(=O)c3ccc(Br)o3)cc12 | 17.1% | 1.03 µM [rising, full curve, poor fit] | 1.03 µM [rising, partial curve]
53 | COc1ccc2c(c1)OC[C@H]1[C@H]2N2C(=O)[C@H](C)NC(=O)[C@@]2(C)[C@H]1c1ccccc1 | -11.2% | – | –
54 | O=C(CCNC(=O)c1ccccc1Cl)NN1C(=O)NC2(CCCCC2)C1=O | -50% | 0.731 µM [falling, partial curve, poor fit] | –
55 | C=CCn1c(CSc2nc3ccccc3s2)nnc1SCC(=O)NCc1ccccc1 | -70.8% | 5.17 µM [falling, full curve] | 4.11 µM [falling, full curve]
56 | COc1ccc(/C=C/C(=O)Nc2cc(C(F)(F)F)ccc2Cl)cc1OC | -13.6% | – | 16.4 µM [falling, single point]
57 | CCOc1cccc(-c2cc(C(=O)N/N=C/c3ccc(OC)c(CN4CCOCC4)c3)c3ccccc3n2)c1 | 10.1% | – | 2.31 µM [falling, partial curve]
58 | COc1ccc(NC(=S)NCCc2c[nH]c3ccccc23)cc1 | 7.15% | – | –
59 | Cc1ccc(S(=O)(=O)N2CCN(CC(=O)N/N=C/c3ccc(Br)s3)CC2)cc1 | -15.5% | – | –
60 | CCOc1ccc(OCCC(=O)OCC(=O)Nc2ccc(N3CCOCC3)cc2)cc1 | 17.5% | – | 5.8 µM [falling, single point]
